# The supplement of paper PMC10338343
# ± gives the standard deviation. Only a part is listed here, and it is no random draw. The uncertainty is large for many entries. Some of the results follow.
# Columns and labels:
# [1] = system: MIWI (PIWIL1) piRISC loaded with L1MC piRNA (30 nt); assay: pre-steady-state target cleavage rate (min^-1); higher = faster piRNA-guided slicing of the target; settings: guide: L1MC piRNA 5'p-UAACUAAAUACUAUGCAAGCUGUAGGUCCU
# Outline: (§1)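 Cleave-'n-Seq used a transcribed, DNA-blocked target RNA library at 0.1 nM and active affinity-purified piRISC with one synthetic guide at 1 nM, with or without 500 nM GTSF1 partner protein, in HEPES–potassium acetate buffer at 33 °C for 0–8 or 0–960 min. Uncleaved targets were sequenced and normalised to depth and to weakly complementary targets, and three trials were pooled with k3 capped at 0.0001 min^-1. The pre-steady-state cleavage rate was estimated by a burst-and-steady-state fit.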
# [2] = system: EfPiwi piRISC loaded with L1MC piRNA (26 nt); assay: pre-steady-state target cleavage rate (min^-1); guide: L1MC piRNA 5'p-UAACUAAAUACUAUGCAAGCUGUAGG; higher = faster piRNA-guided slicing of the target
# Outline: as §1
# [3] = system: MILI (PIWIL2) piRISC loaded with L1MC piRNA (26 nt); assay: pre-steady-state target cleavage rate (min^-1); MIWI and MILI are mouse PIWI proteins and EfPiwi is from a freshwater sponge; tags in brackets are library labels; higher = faster piRNA-guided slicing of the target; settings: guide: L1MC piRNA 5'p-UAACUAAAUACUAUGCAAGCUGUAGG; auxiliary factor: none (no GTSF1)
# Outline: as §1
# [4] = auxiliary factor: 500 nM mouse GTSF1
# [5] = auxiliary factor: none (no GTSF1)
# [6] = auxiliary factor: 500 nM Ephydatia muelleri Gtsf1
# [7] = auxiliary factor: none (no Gtsf1)
Sequence,"pre-steady-state target cleavage rate [1, 4]","pre-steady-state target cleavage rate [1, 5]","pre-steady-state target cleavage rate [2, 6]","pre-steady-state target cleavage rate [2, 7]",pre-steady-state target cleavage rate [3]
UCCUGGAUGUGCUUGCAUAGUUAUUUAGUUA,0.00378 ± 0.0046,0.00241 ± 0.0041,0.000945 ± 0.0072,0.000543 ± 0.018,–
UCCUGGUACAGCUUGCAUAGUAAUUAGAUA,0.209 ± 0.042,0.00778 ± 0.0021,0.00477 ± 0.0031,0.000606 ± 0.011,–
UCCUCCUACAGCUUGCAAAGUAUUUACAAA,0.267 ± 0.036,0.00344 ± 0.0031,0.00274 ± 0.0029,0.000112 ± 0.024,–
UCCUGGAUGUCGUAGCAUAGUUUUUAGUUA,0.00162 ± 0.0072,0.000741 ± 0.013,0.00029 ± 0.013,0.000332 ± 0.024,–
UCCUGGAUGUCCUUGCAAUGUAUUUAGUUA,0.00194 ± 0.0057,0.0014 ± 0.0034,0.00104 ± 0.008,0.000269 ± 0.028,–
UCCUGGAUGUCGUUGCAAAGUAUUUUGUUA,0.000755 ± 0.013,0.000155 ± 0.02,0.000284 ± 0.013,0.000128 ± 0.054,–
UCCUGCAACAGCUUGCAUUGUAUUUAGUUA,0.964 ± 0.068,0.0397 ± 0.01,0.0331 ± 0.0081,0.000645 ± 0.012,–
UCCUGGAUGUCGUUGCUUAGUAUUUAGUUA,0.00157 ± 0.0054,0.0017 ± 0.0033,0.00155 ± 0.0035,0.000292 ± 0.027,–
UCCUGGAUGUCGUUGCAUAGUAUGUUAGUUA,0.00189 ± 0.0066,0.00137 ± 0.0059,0.00121 ± 0.0082,0.000549 ± 0.021,–
UCCUGGAUGUCGAUGCAUAGUAUGUUAGUUA,0.00055 ± 0.018,0.000685 ± 0.013,0.00113 ± 0.0076,0.000268 ± 0.037,–
UCCUGGAUGUGCAUGCAUAGUAUUUAGAAA,0.00306 ± 0.0036,0.00207 ± 0.0036,0.00304 ± 0.0022,0.00073 ± 0.0099,–
UCCUGGAUGUGCUUGCAUAGUAUUUAGGUUA,0.191 ± 0.02,0.0232 ± 0.0058,0.00262 ± 0.0021,0.000483 ± 0.024,–
UCCUGGAUGAGCUUGCAUAGUAAAAAGAAA,0.000915 ± 0.011,0.000366 ± 0.0077,0.00116 ± 0.0061,0.000634 ± 0.016,–
UCCUGGAUCAGCUUGCAUGAGUAUUUAGUUA,0.00199 ± 0.0063,0.000312 ± 0.013,0.000452 ± 0.016,0.000281 ± 0.021,–
UCCUGGAUGUGCUUGCUAUAGUAUUUAGUUA,0.00166 ± 0.0079,0.000963 ± 0.0097,0.00236 ± 0.0029,0.00156 ± 0.0084,–
UCCUGGAUGAGCAACCAUAGUAUUUACAAA,0.00156 ± 0.0099,0.000713 ± 0.0099,0.000152 ± 0.042,0.0004 ± 0.018,–
UCCUGGAUGAGCUUGCAAUGUAUUUAGAAA,0.00157 ± 0.0059,0.000522 ± 0.0051,0.00115 ± 0.0059,0.000563 ± 0.015,–
UCCUGGUACAGCUUGCAUAUGUAUUUAGUUA,0.00371 ± 0.0053,0.00127 ± 0.009,0.000956 ± 0.011,0.000304 ± 0.03,–
UCCUGGAUCAGGUAGCAUAGUAUUUAGUUA,0.0152 ± 0.0033,0.00289 ± 0.0022,0.00369 ± 0.0035,0.00111 ± 0.0089,–
UCCUGGAUGUCGUUGCAUAGUUUUUAGUUA,0.00172 ± 0.0078,0.00234 ± 0.0036,0.00143 ± 0.0037,0.000184 ± 0.05,–
UCCUGGAUCAGCUUGCAUAGUCUUUAGUUA,0.841 ± 0.035,0.0552 ± 0.012,0.0204 ± 0.0053,0.00181 ± 0.0077,–

Sequence,"pre-steady-state target cleavage rate [1, 4]","pre-steady-state target cleavage rate [1, 5]","pre-steady-state target cleavage rate [2, 6]","pre-steady-state target cleavage rate [2, 7]",pre-steady-state target cleavage rate [3]
UCCUGGAACAGCUUGCAAUGUAUUUAGUAA,0.146 ± 0.018,0.00598 ± 0.003,0.000357 ± 0.0089,0.000494 ± 0.013,–
UCCUGCUACAGCUUGCAUAGUCAUUUAGUUA,0.0744 ± 0.02,0.00362 ± 0.0031,0.00203 ± 0.003,0.000347 ± 0.016,–
UCCUGGAUGUCGUUGCAUAGUUUUAGUUA,0.000514 ± 0.023,0.00179 ± 0.0038,0.000247 ± 0.016,< 0.0001,–
UCCUGGUAGACCUUGCAUAGUAUUUAGUUA,0.46 ± 0.042,0.00968 ± 0.0029,0.0182 ± 0.0065,0.000439 ± 0.028,–
UCCUGGAUGUCGAACCAUUGAAUUUAGUUA,0.000364 ± 0.0084,0.000375 ± 0.014,< 0.0001,0.000237 ± 0.023,–
UCCUGGAUCACGUUGCAUAGUAUUUAGUAA,0.0198 ± 0.0044,0.00275 ± 0.0033,0.000725 ± 0.006,0.000312 ± 0.029,–
UCCUGGAUGUCGAAGCAUAGUCAUUUAGUUA,0.0028 ± 0.0038,0.0028 ± 0.0032,0.00108 ± 0.0066,0.000224 ± 0.028,–
UCCUGGAUGUCGUUGCGUAGUAUUUAGUUA,0.00186 ± 0.0055,0.00259 ± 0.004,0.00161 ± 0.0051,0.000348 ± 0.026,–
UCCUGGAUGAGCUUGCACUAGUAUUUAGUUA,0.00113 ± 0.0079,0.000988 ± 0.0065,0.000421 ± 0.011,0.000496 ± 0.017,–
UCCUGGAUGAGCUACGAUAGUAUUUAGUUA,0.00076 ± 0.013,0.000421 ± 0.0082,0.000801 ± 0.0079,0.000442 ± 0.017,–
UCCUGGAUGUGCUUGCAUAGUAUAAAGAAA,0.000724 ± 0.016,0.000829 ± 0.01,0.00106 ± 0.006,0.000432 ± 0.019,–
UCCUGGAUGUCCUUUCAUAGUAUUUAGUUA,0.0134 ± 0.004,0.000776 ± 0.0064,0.000887 ± 0.0029,0.000378 ± 0.016,–
UCCUGGAUGUGCUAGCAUAGUAUUUAGAAA,0.00284 ± 0.0037,0.00177 ± 0.0043,0.00168 ± 0.0028,0.000557 ± 0.012,–
UCCUGGAUGAGCUUGCAUAGGUAUUUAGUUA,0.00131 ± 0.0075,0.00165 ± 0.0047,0.00116 ± 0.0057,0.000435 ± 0.022,–
UCCUGGAUGUCGUUGCAUAGUAUUUAGUCUA,0.00135 ± 0.0069,0.00199 ± 0.0052,0.000281 ± 0.03,0.000355 ± 0.026,–
UCCUGGAACACGAUGCAUAGUAUUUACAAA,0.00291 ± 0.0059,0.00169 ± 0.0049,0.00408 ± 0.0037,0.000487 ± 0.013,–
UCCUGGUACACGAUGCAUAGUAUUUACAAA,0.00297 ± 0.0066,0.00138 ± 0.0066,0.000739 ± 0.0049,0.000313 ± 0.032,–
UCCUGGAUCACGUUGCAUAGUAUUUAGAAA,0.003 ± 0.0034,0.00201 ± 0.0029,0.00652 ± 0.0044,< 0.0001,–
UCCUGCUACAGCUUGGAUACUAUUUAGUUA,–,–,0.00633 ± 0.0024,–,0.00214 ± 0.003
UCCUGGUACAGCUUGGAUACUAUUUAGUUA,–,–,0.000558 ± 0.014,–,0.00193 ± 0.0067

# Copied from the list:
# pre-steady-state target cleavage rate [2, 7], UCCUGGAUGAGCUUGCACUAGUAUUUAGUUA reads 0.000496 ± 0.017
# pre-steady-state target cleavage rate [1, 4], UCCUGGUAGACCUUGCAUAGUAUUUAGUUA reads 0.46 ± 0.042
